In the assay the test system is P388 leukemia ip, CD2F1 mice, survival T/C. Nature of the assay: NCI In Vivo Anticancer Drug Screen. Data for tumor model P388 Leukemia (intraperitoneal) in CD2F1 (CDF1) mice. The settings on record: T/C endpoint: median survival time, dose: 2.0 mg/kg/injection, higher T/C = longer survival.

The list is a part of this screen's results and no random one: it is rich in T/C values a quarter to a half above the control, in often repeated tests (any T/C) and in doses without a T/C. Other doses and runs of a compound stand elsewhere. T/C gives the treated animals as a percentage of the vehicle group. Some doses have a count of surviving animals in place of a T/C: the source holds a T/C of zero for them, seemingly a mark for toxic or unscored doses. Some survivor counts are full or nearly so, which does not show that the dose was tolerated: the source hardly ever lists a survival T/C far under the control, and the zero likely stands for such cases as well. Counts of survivors are from the toxicity check (mostly the fifth day) where no day follows; animals may have died later. Schedules are NCI's codes, read here as Q, the interval in days (D) or hours (H), X, the number of doses. Some doses were run more than once; their values stand side by side, smallest first. Additions like (4×) count equal records among those shown. For survival time, the PubChem record calls one and a half times the control and up active, and a quarter to a half above the control has no call in these data; cut-offs in other NCI protocols can differ. Some T/C values are followed by the survivors on the day toxicity was checked, most often the fifth; where none is given, no animal had died by that day.

For `CC[C@]1(O)C[C@H]2CN(CCc3c([nH]c4ccccc34)[C@@](C(=O)OC)(c3cc4c(cc3OC)N(C=O)[C@H]3[C@@](O)(C(=O)OC)[C@H](OC(C)=O)[C@]5(CC)C=CCN6CC[C@]43[C@@H]65)C2)C1`, the T/C was 167 % of control (schedule: Q01DX001 (ip), vehicle: saline, evaluated on day 45); 86 % of control (schedule: Q01DX001 (ip), vehicle: water, evaluated on day 3); 154, 163, 167, 168 [4 of 7 alive], 170 [8 of 9 alive], 177, 178 % of control (schedule: Q01DX001 (ip), vehicle: water, evaluated on day 5); 145, 148, 158 % of control (schedule: Q01DX001 (ip), vehicle: water, evaluated on day 6); 97 % of control (schedule: Q01DX001 (ip), vehicle: water, evaluated on day 10); 155 % of control [5 of 6 alive] (schedule: Q01DX001 (ip), vehicle: water, evaluated on day 20). The T/C runs as follows: (schedule: Q01DX001 (ip), vehicle: water, evaluated on day 30) 107 [5 of 6 alive], 133, 148 [4 of 6 alive], 150, 152, 153, 153 [2 of 3 alive], 153 [4 of 6 alive], 157, 157 [5 of 6 alive], 160, 161 [4 of 6 alive], 161 [5 of 6 alive], 162, 163 (2×), 164, 164 [5 of 6 alive], 167 [5 of 6 alive], 168, 169, 171 (2×), 174, 174 [4 of 6 alive], 176, 177 [5 of 6 alive], 183, 183 [2 of 3 alive], 184 [4 of 6 alive], 197 % of control; (schedule: Q01DX001 (ip), vehicle: water, evaluated on day 35) 145 % of control; (schedule: Q04DX003 (ip), vehicle: saline, evaluated on day 5) 98, 125, 175, 176, 194, 200, 216, 216 [8 of 9 alive], 238 % of control; (schedule: Q04DX003 (ip), vehicle: saline, evaluated on day 9) 127 [4 of 6 alive], 171, 190, 193, 209 % of control; (schedule: Q04DX003 (ip), vehicle: saline, evaluated on day 20) 192 % of control; (schedule: Q04DX003 (ip), vehicle: saline, evaluated on day 23) 203 % of control. Also, the T/C (schedule: Q04DX003 (ip), vehicle: saline, evaluated on day 29) was 278 % of control; the T/C (schedule: Q04DX003 (ip), vehicle: saline, evaluated on day 30, list 1 of 2) was 87, 94, 98, 108 (2×), 112, 115, 117, 122, 153, 191, 195 [5 of 6 alive], 198, 202, 205, 211, 212, 216, 219, 222, 226, 231 (2×), 235, 236, 238, 239, 242, 244, 250, 251, 285 % of control; the T/C (schedule: Q04DX003 (ip), vehicle: saline, evaluated on day 30, list 2 of 2) was 89, 96, 103, 108, 109, 113, 117, 120, 127, 169, 192, 198, 200, 203, 209 [5 of 6 alive], 212, 214, 218, 222, 225, 227, 231, 234, 235, 237, 238, 240, 243, 248, 250, 257, 288 % of control; the T/C (schedule: Q04DX003 (ip), vehicle: saline, evaluated on day 35) is 119 % of control; the T/C (schedule: Q04DX003 (ip), vehicle: saline, evaluated on day 40) is 240 % of control; the T/C (schedule: Q04DX003 (ip), vehicle: saline, evaluated on day 45) is 95, 99 [5 of 6 alive], 119, 122, 142, 145 [7 of 8 alive], 183, 213, 216, 220, 225 (3×), 227, 237, 239, 241 [9 of 10 alive], 247, 248, 255, 257, 260 (2×), 262 % of control. Further, the T/C by setting is: (schedule: Q04DX003 (ip), vehicle: saline, evaluated on day 56) 216 % of control; (schedule: Q04DX003 (ip), vehicle: saline, evaluated on day 60) 110 [9 of 10 alive], 116 [9 of 10 alive], 119, 130 [9 of 10 alive], 166, 175, 214, 234, 235, 235 [9 of 10 alive], 236, 239, 242, 245, 248, 252, 274, 530 % of control. The survivor count is, setting by setting: (schedule: Q01DX001 (ip), vehicle: saline) 1 of 6, 2 of 6, 3 of 6, 4 of 6 (2×), 6 of 6; (schedule: Q01DX001 (ip), vehicle: water) 1 of 3, 3 of 6, 4 of 6; (schedule: Q01DX009 (ip), vehicle: water) 3 of 6; (schedule: Q04DX003 (ip), vehicle: saline) 6 of 10, 5 of 6, 6 of 6 (2×).
